Measured values reported in the supplement of paper PMC12578635.
Some of the results follow. Cut-off read from the data, not from the text of the source: active = 150% or more and inactive = the rest. Many values rest on one well or one pass, so single values are uncertain.

system: Staphylococcus aureus JE2-lux inside RAW 264.7 macrophages; experiment: intracellular bacterial bioluminescence relative to DMSO vehicle; higher = higher intracellular bacterial metabolic activity; conditions: 10 µM; treatment time 4 h; gentamicin 50 µg/ml

Intracellular bacterial bioluminescence, inactive:
COC(=O)c1ccc(CSc2nc(N)c3c4c(sc3n2)CCC4)cc1 89%, CCCN1C(=O)/C(=C2\SC(=N)NC2=O)c2cc(Br)ccc21 103%, Cc1cc(C)c2cc(CNCc3ccccc3C)c3nn(C)c(=O)n3c2c1 53.6%, O=C(NC1CCCC1)C(c1ccc2ncccc2c1)N(Cc1cccs1)C(=O)c1ccc(O)cc1 (stereo not drawn) 84.1%, COc1cccc(CNC(=O)CSc2nnc3ccc(C(=O)NCc4ccccc4)cn23)c1 94.1%, O=C(COc1ccc(Cl)cc1Cl)Nc1nnc2n1CCS2 113%, COc1ccc(-c2nnc(Nc3ccc4c(c3)OCO4)[nH]c2=O)cc1 94.8%, Cc1ccc(S(=O)(=O)n2nc(-c3ccc(C)c(C)c3)nc2N)cc1 16.6%, CCc1ccc(Nc2nc(C)c3ncn(-c4ccc(CC)cc4)c3n2)cc1 90.5%, COCCn1c(SCC(=O)Nc2nccs2)nnc1-c1c[nH]c2ccccc12 99.2%, CCOC(=O)C1=C(C)N=c2s/c(=C3\C(=O)Nc4ccccc43)c(=O)n2C1c1cccs1 (stereo not drawn) 102%, COc1ccc(-c2nn(Cc3ccc(C)cc3)c(=O)c3noc(C)c23)cc1 97.4%, Cc1nn(Cc2noc(-c3cc4ccccc4[nH]3)n2)c(C)c1S(=O)(=O)N1CCCC1 71.9%, Cc1cccn2c(=O)nc(SCC(=O)N(C(C)C)C(C)C)nc12 120%, O=C(COc1ccccc1)Nc1ccc(-c2cn3ccccc3n2)cc1 73.6%, Cc1cnn(Cc2ccccc2)c1NC(=O)c1ncoc1-c1ccc(F)cc1 89.6%, Brc1cccc2sc(N3CCOCC3)nc12 101%, CC(=O)Nc1ccc(C(O)CN2CCC3(CC2)CC(O)c2cc(C)c(C)cc2O3)cc1 (stereo not drawn) 130%, Cc1ccc2c(c1)/C(=N/NC(=O)CCCCCC(=O)N/N=C1/C(=O)Nc3ccc(C)cc31)C(=O)N2 108%, CCOC(=O)c1ccsc1NC(=O)c1ccc2ncsc2c1 91.6%, O=C1CC(c2nc3ccccc3[nH]2)CN1c1cccc(C(F)(F)F)c1 (stereo not drawn) 44.3%, CCN1CCN(c2ccc(N3CCN(C(=O)c4ccc(C(F)(F)F)cc4)CC3)nn2)CC1 116%, Cc1nc(OCC(=O)NC2CCS(=O)(=O)C2)c2c(C)c(C)oc2n1 (stereo not drawn) 108%, Cc1oc(-c2ccno2)cc1S(=O)(=O)N1CCN(c2ccc(F)cc2)CC1 105%, O=C(OCc1ccco1)c1cc2cc(Br)ccc2oc1=O 133%, CC1CN(C(=O)Cn2cnc3c(cnn3-c3cccc(Cl)c3)c2=O)CC(C)O1 (stereo not drawn) 120%, O=C(Cn1ncn2nc(-c3ccccc3)cc2c1=O)NCC1CCCO1 (stereo not drawn) 86.3%, O=C(NCC1CCCO1)C1CCCN(c2nccnc2Oc2ccccc2)C1 (stereo not drawn) 93%, O=C(NCCCc1ccccc1)C(=O)NC1CCCC1 107%, Cc1ccc(NC(=O)CN2C(=O)C(=O)c3ccccc32)c(C)c1 90.9%, Cc1cc(=O)n2nc(NCc3ccc(C(=O)NCc4ccccc4F)cc3)nc2[nH]1 123%, CCc1ccc(NC(=O)C2CC3CSCN3C23C(=O)N(CC)c2ccccc23)cc1 (stereo not drawn) 89.9%, CCSc1nsc(NC(=O)Nc2ccc(OC)c(OC)c2)n1 70%, COC(=O)C1=C(NC(=O)c2cccc([N+](=O)[O-])c2)CCS1 80.4%, O=C(NCc1cccnc1)c1cnc(N2CCCCC2)c2ccccc12 106%, COc1ccc2c(c1)c1nnc(SCC(=O)NC3CCCCC3C)nc1n2C (stereo not drawn) 83.2%, Cc1nc2cc(-c3noc(C(C)Oc4ccccc4)n3)ccc2n(C)c1=O (stereo not drawn) 117%, CCOC(=O)c1ccc(NC(=O)/N=c2\c3ccccc3[nH]c(=O)n2C(C)C)cc1 94.1%, COc1ccc(CCNC(=O)c2cnc3sccn3c2=O)cc1OC 89.4%, COc1cc(OC)cc(C(=O)NNc2nc3ccc(Cl)cc3s2)c1 69.5%, COc1ccc(OC)c(C(=O)CSc2nnc3ncccn23)c1 110%, O=C(CSc1nc(-c2ccco2)nc2cc(=O)[nH]n12)NCC1CCCO1 (stereo not drawn) 121%, COc1ccc(CC(=O)n2nc(-c3ccccc3Cl)nc2N)cc1OC 110%, COc1ccc(-c2ccc(SCC(=O)Nc3c[nH]c(=O)[nH]c3=O)nn2)cc1 114%, O=C(CN1CCC(C(=O)c2ccc(F)cc2)CC1)Nc1cccc2ccccc12 94.1%, COc1cc(-c2noc(CCCn3c(=O)[nH]c4cc5c(cc4c3=O)OCO5)n2)ccc1OC(C)C 105%, Cc1nn(-c2ccc3nncn3n2)c2c1C(c1ccccc1OC1CCCC1)CC(=O)N2 (stereo not drawn) 74.7%, Cc1oc2nc(SCC(=O)NC3CCCCC3)nc(N)c2c1C 91.7%, COc1ccc(NS(=O)(=O)c2ccc(CCN3C(=O)c4cccc5cccc(c45)C3=O)cc2)cc1 89.1%, Cc1cccc(Oc2ncnc(N)c2[N+](=O)[O-])c1C 90.4%, CC(C)(C)C1=NN(CC(=O)Nc2nccs2)C(=O)c2cc3ccccc3n2C1 118%, COc1ccc(/C=C2/SC(Nc3cccnc3)=NC2=O)cc1OC 90.4%, COc1ccc2cc(C(N)=O)/c(=N/c3cccc(C)c3)oc2c1 61.2%, CCc1ccc(N(CC(=O)Nc2ccccc2OC)C2=NC3CS(=O)(=O)CC3S2)cc1 (stereo not drawn) 86.5%, COc1cc(C(=O)N2CCN=C2SCc2ccc([N+](=O)[O-])cc2)cc(OC)c1OC 23%, O=C(c1ccccc1F)N1CCc2c(nc(N3CCOCC3)[nH]c2=O)C1 96.6%, Cc1ccc(C(=O)CSc2nccn(-c3ccc(Cl)cc3)c2=O)cc1 105%, COc1cc(OC)c(NC(=O)c2c(-c3ccccc3)nnc3ccc(C)cc23)cc1Cl 118%
